Assay results as given in PubChem BioAssay AID540276 (National Center for Advancing Translational Sciences (NCATS), 2011).
The campaign covered roughly 300,000 compounds. About 5,400 (1.8%) were called active. The shares of active, inactive and inconclusive entries below differ from those in the screen. The call rests on the fitted dose curve; tested in HEK293 cells. A potency beside an inconclusive call is a rough fit, not a confirmed value.

Test: qHTS for inhibitors of binding or entry into cells for Marburg Virus
Details: Marburg virus pseudotyped entry inhibition, cell reporter; activity change, negative = inhibition: at 37.8 µM (top of the series) unless noted
On the % scale 0 is the no-effect control and ±100 the full control effect; potency means the concentration at half of the fitted maximal effect.

Row | Structure (SMILES) | Potency | activity change, negative = inhibition
1 | O=C(NCc1nc(-c2ccccc2)no1)c1ccc(Br)o1 | inactive | –
2 | O=C(NCc1ccco1)c1cc(S(=O)(=O)N2CCOCC2)c(Cl)cc1Cl | inconclusive: 35.5 µM [inhibitor, single point] | –
3 | CCN1CCn2c3c(c4cc(Br)ccc42)CCCC31 (stereo not given) | inconclusive: 35.5 µM [inhibitor, single point] | –
4 | CCCCn1nc(C(=O)Nc2ccccc2N2CCCC2)c2ccccc2c1=O | inactive | –
5 | CC(CCc1ccccc1)NC(=O)CCc1cn(C)c2ccccc12 (stereo not given) | inconclusive: 17.8 µM [inhibitor, partial curve, poor fit] | –
6 | CN(C(=O)CSc1ncnc2ccccc12)C1CCCCC1 | inconclusive: 4.47 µM [activator, single point] | –
7 | Cc1ccc(-n2cc(-c3ccccc3)c3c(N4CCN(C)CC4)ncnc32)cc1 | inconclusive: 20 µM [inhibitor, single point] | –
8 | CSCCOC(=O)C1=C(C)NC(=O)CC1c1ccccc1Cl (stereo not given) | inconclusive: 10 µM [inhibitor, partial curve, poor fit] | –
9 | O=C(CC(=O)c1cccs1)c1ccncc1 | inconclusive: 2.82 µM [activator, partial curve, poor fit] | –
10 | Cc1c(Cl)c([N+](=O)[O-])nn1CC(=O)N1CCN(C23CC4CC(CC(C4)C2)C3)CC1 | inconclusive: 35.5 µM [inhibitor, single point] | –
11 | CCCCc1c(C)c2ccc(OC)c(/C(C)=N\O)c2oc1=O | inactive | –
12 | COc1ccccc1NC(=O)COC(=O)c1cc(C)n(C2CC2)c1C | inactive | –
13 | COc1cccc(-n2c(-c3cccc(S(=O)(=O)N(C)C)c3)n[nH]c2=S)c1 | inconclusive: 35.5 µM [activator, single point] | –
14 | CCc1nnc(NC(=O)C2CCCN(c3nc(C)cc(C)n3)C2)s1 (stereo not given) | inactive | –
15 | CCOC(=O)N1CCC(NC2CCCCCCC2)CC1 | inconclusive: 25.9 µM [inhibitor, single point] | –
16 | CCOc1ccc(S(=O)(=O)Nc2ccc(C(=O)N/N=C(\C)c3ccc(-n4ccnc4)cc3)cc2)cc1 | active: 11.2 µM | –
17 | CCCCOC(=O)c1ccc(NC(=O)c2c(Cl)ccc(Cl)c2OC)cc1 | inconclusive: 35.5 µM [inhibitor, single point] | –
18 | COc1ccc(C)cc1NC(=O)CSc1nnc(COc2ccc(C)cc2)n1Cc1ccco1 | inconclusive: 11.2 µM [inhibitor, partial curve, poor fit] | –
19 | CC(CNC(=O)CCS(=O)(=O)c1ccc2c(c1)NC(=O)CO2)c1ccccc1 (stereo not given) | inactive | –
20 | C=CCOc1ccccc1CN1CCC(n2nccc2NC(=O)C2CCOC2)CC1 (stereo not given) | inactive | –
21 | Cc1ccc(SCC(=O)NCC(C)C)cc1 | inactive | –
22 | Cc1sc2ncnc(NCc3cccnc3)c2c1C | inactive | –
23 | Nn1cc(-c2ccccc2)nc1SCC(=O)Nc1ccc2c(c1)OCO2 | inactive | –
24 | CNC(=O)COc1ccc(Nc2nnc(-c3ccc(C)c(S(N)(=O)=O)c3)c3ccccc23)cc1 | inactive | –

Row | Structure (SMILES) | Potency | activity change, negative = inhibition
25 | O=C(O)c1ccc(Nc2cccc(F)c2)c([N+](=O)[O-])c1 | inconclusive: 6.31 µM [inhibitor, single point] | –
26 | COc1ccc2oc(C(=O)Nc3nc4ccc(S(C)(=O)=O)cc4s3)c(C)c2c1 | inactive | –
27 | CCSC1=N/C(=C\c2ccc(-c3ccccc3[N+](=O)[O-])o2)C(=O)S1 | inconclusive: 2.24 µM [activator, partial curve, poor fit] | –
28 | O=C(CCCSc1nc2ccccc2[nH]1)NCc1ccc(Cl)cc1 | inconclusive: 6.51 µM [inhibitor, single point] | –
29 | C=CCN(c1ccccc1OC)S(=O)(=O)c1cccc(C(=O)OC2CCOC2=O)c1 (stereo not given) | inactive | –
30 | Cc1nc2nc(C)n(-c3ccccc3)c2s1 | inconclusive: 35.5 µM [activator, partial curve, poor fit] | –
31 | Cc1ccc(C(=O)Oc2cccc(NC(=O)c3ccccc3)c2)cc1C | inconclusive: 0.631 µM [activator, full curve, poor fit] | –
32 | O=C(NC(Nc1nc2ccc([N+](=O)[O-])cc2s1)(C(F)(F)F)C(F)(F)F)c1ccccc1 | active: 0.517 µM | –
33 | N#Cc1cc2c(=O)n3ccccc3nc2n(Cc2ccco2)c1=NC(=O)c1ccco1 | inconclusive: 1.26 µM [activator, single point] | –
34 | C[C@@](N)(Cc1ccc(O)c(O)c1)C(=O)O | inconclusive: 6.28 µM [activator, partial curve, poor fit] | –
35 | Nc1c(-c2ccccc2)c(CSc2nc3ccccc3[nH]2)nn1-c1cccc(Cl)c1 | inconclusive: 18.4 µM [inhibitor, single point] | –
36 | CCC(C)c1ccccc1OCCOCCN1CCCC1 (stereo not given) | inconclusive: 14.6 µM [inhibitor, partial curve, poor fit] | –
37 | N#Cc1ccc(OCC(=O)N/N=C(\CCC(=O)O)c2cccs2)cc1 | inconclusive: 17.8 µM [activator, single point] | –
38 | CC(=O)c1cn(-c2ccc(Cl)cc2)c(=O)n(Cc2ccc(F)cc2)c1=O | – | inconclusive: 19.7% [activator] [at 46.1 µM]
39 | Cc1cc(N2CCCC2=O)cc(C)c1S(=O)(=O)NCCOc1ccc(C(C)(C)C)cc1 | inconclusive: 11.2 µM [inhibitor, single point] | –
40 | COc1ccccc1C(=O)Nc1cccc2nc(C)ccc12 | inconclusive: 14.1 µM [inhibitor, partial curve, poor fit] | –
41 | COc1ccc(/C=N/NC(=O)Cn2ccnc2C)cc1OC | inactive | –
42 | CCCCn1c(=O)[nH]c(=O)c2c1nc(-c1cc(Br)c(OCC)c(OC)c1)n2C | inconclusive: 2.24 µM [inhibitor, partial curve, poor fit] | –
43 | CCc1ccccc1NC(=O)Nc1ccc2snnc2c1 | inactive | –
44 | Cc1cccc(OCC(=O)Nc2c3c(nn2C(C)(C)C)CS(=O)(=O)C3)c1 | inactive | –
45 | COc1ccc(NC(=O)C[C@H]2C(=O)N(c3ccc(Br)cc3)C[C@@H]2C)cc1 | inconclusive: 0.0014 µM [activator, full curve, poor fit] | –
46 | CCOP(=S)(OCC)Oc1cc(C)oc(=O)c1Cl | inconclusive: 11.2 µM [activator, partial curve, poor fit] | –
47 | CC(=O)N(c1ccccc1)c1nnc(-c2cnc(C)cn2)s1 | inconclusive: 12.6 µM [inhibitor, single point] | –
48 | CCCCNC(=O)CC1N=C2c3ccccc3N=C(SCC(=O)Nc3ccccc3OC)N2C1=O (stereo not given) | inconclusive: 29.1 µM [inhibitor, single point] | –

Molecules from the list above that contain fluorine:
Row | Structure (SMILES) | Potency | activity change, negative = inhibition
25 | O=C(O)c1ccc(Nc2cccc(F)c2)c([N+](=O)[O-])c1 | inconclusive: 6.31 µM [inhibitor, single point] | –
32 | O=C(NC(Nc1nc2ccc([N+](=O)[O-])cc2s1)(C(F)(F)F)C(F)(F)F)c1ccccc1 | active: 0.517 µM | –
38 | CC(=O)c1cn(-c2ccc(Cl)cc2)c(=O)n(Cc2ccc(F)cc2)c1=O | – | inconclusive: 19.7% [activator] [at 46.1 µM]

(listing goes on)

Row | Structure (SMILES) | Potency | activity change, negative = inhibition
49 | COc1ccc(C2(C(=O)NCCCN3CCOCC3)CCOCC2)cc1 | inconclusive: 14.6 µM [activator, partial curve, poor fit] | –
50 | C[C@H]1O[C@@H](O[C@H]2[C@@H](O)C[C@H](O[C@H]3[C@@H](O)C[C@H](O[C@H]4CC[C@@]5(C)[C@H](CC[C@@H]6[C@@H]5C[C@@H](O)[C@]5(C)[C@@H](C7=CC(=O)OC7)CC[C@]65O)C4)O[C@@H]3C)O[C@@H]2C)C[C@H](O)[C@@H]1O | active: 0.13 µM | –
51 | Cc1ccc(-c2nc(C)sc2CC(=O)OCC(=O)Nc2c(F)cccc2F)cc1 | inconclusive: 14.1 µM [activator, single point] | –
52 | CCn1c(C(=O)N2CCC(Cc3ccccc3)CC2)cc2sccc21 | inconclusive: 2.06 µM [activator, partial curve] | –
53 | CCOc1ccc(-c2[nH]ncc2Oc2ccccc2OCC)c(O)c1 | inconclusive: 35.5 µM [inhibitor, single point] | –
54 | O=C(Nc1ccc([N+](=O)[O-])cc1)c1ccc(S(=O)(=O)N2CCCC2)cc1 | inactive | –
55 | COc1ccccc1N=C(C)C1=C(O)CSC1=O | inconclusive: 3.55 µM [activator, partial curve, poor fit] | –
56 | Cc1ccsc1/C=N/NC(=O)c1ccc(Cn2cc(Br)cn2)o1 | inactive | –
57 | CCOc1ccc(NS(=O)(=O)c2ccc(C(=O)NCc3ccncc3)cc2)cc1 | inactive | –
58 | CCCN1C(=O)C(Cc2nc3ccccc3c(=O)n2CC)c2cc(Br)ccc21 (stereo not given) | inactive | –
59 | Cc1sc(NC(=O)Nc2ccccc2)c(C(N)=O)c1C | inactive | –
60 | CSCC[C@H](NC(=O)C(C)Oc1ccc(Cl)cc1)c1nc2ccccc2[nH]1 (stereo not given in full) | inconclusive: 8.91 µM [inhibitor, partial curve, poor fit] | –
61 | c1ccc(-c2nnc3sc(-c4ccncc4)nn23)cc1 | inactive | –
62 | COC(=O)[C@@H]1[C@@H](C)N(CCc2cc(OC)c(OC)c(OC)c2)C(=O)N[C@H]1c1ccccc1 | inactive | –
63 | COc1ccc(CN2C(=O)CCC2(C)C(=O)NC2CCCCC2)c(OC)c1 (stereo not given) | inconclusive: 5.62 µM [activator, single point] | –
64 | CCOC(=O)C1(Cc2ccc(Cl)cc2)CCN(Cc2nccn2CC)CC1 | inconclusive: 35.5 µM [inhibitor, partial curve, poor fit] | –
65 | CCOC(=O)N1CCN(Cc2nc(-c3cccc(C)c3)no2)CC1 | inactive | –
66 | Oc1c(CN2CCCCC2)cc(COCc2ccccc2)c2cccnc12 | inconclusive: 2.51 µM [inhibitor, full curve, poor fit] | –
67 | Cc1ccc2cn[nH]c2c1NC(=S)NC(=O)c1ccccc1 | inactive | –
68 | CCn1c(CN2CCCCC2)nc2cc(NC(=O)COc3ccc(C(C)(C)C)cc3)ccc21 | inconclusive: 0.891 µM [inhibitor, partial curve, poor fit] | –
69 | CC1CN(C2CCN(S(=O)(=O)c3ccc(F)cc3)CC2)CC(C)O1 (stereo not given) | inactive | –
70 | Cc1oc2ccc(O)c(CN3CCC(C)CC3)c2c1C(=O)Nc1ccccc1 | inconclusive: 6.31 µM [inhibitor, single point] | –

Filtered by structure: those above containing a cyano group
Row | Structure (SMILES) | Potency | activity change, negative = inhibition
33 | N#Cc1cc2c(=O)n3ccccc3nc2n(Cc2ccco2)c1=NC(=O)c1ccco1 | inconclusive: 1.26 µM [activator, single point] | –
37 | N#Cc1ccc(OCC(=O)N/N=C(\CCC(=O)O)c2cccs2)cc1 | inconclusive: 17.8 µM [activator, single point] | –
